PubChem BioAssay AID686938, Drosophila RNAi Screening Center | 2013

Aim: 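Looking for CRAC channel components and the factors controlling them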 (primary screen)
Cell system: Drosophila S2R+ cells
Knock-down reagent: long dsRNA against Drosophila genes, about 0.25 µg dsRNA per well, roughly 10,000 cells
Timing: 5 days of knock-down before the calcium assay
Treatment: thapsigargin (SERCA pump blocker) to empty calcium stores; entry signal taken 4 min after adding it
Detection: 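Per-well fluo-4 fluorescence in two replicates, unnormalised, measured in resting cells and 4 min after store depletion by the SERCA blocker thapsigargin; ratio of the two present in few wells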
Direction: calcium entry signal: higher = stronger calcium signal after store depletion; entry to resting ratio: higher = more calcium entry relative to resting level; resting calcium signal: higher = higher resting calcium signal
Active means: 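Hit if the duplicate-averaged plate z-score for entry over resting signal is under −3; wells with weak total dye signal (Fmax z < −2) or more than 5 off-targets removed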
Calls: active = strongly reduced calcium entry; inactive = no strong reduction
The deposit covers about 23,000 reagents; shown is an unselected part of those that have a named target and a result. In the full data, 75 (0.33%) were called active. 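Raw plate signals without normalisation; calls rest on plate z-scores that were not deposited; ratio present for only 364 wells.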 A number with no mark means an inactive call. Names joined by + are all predicted targets of the reagent. Not stated in the record: the dose of the treatment.

predicted target | amplicon | calcium entry signal, replicate 1 (fluorescence units) | calcium entry signal, replicate 2 (fluorescence units) | entry to resting ratio | resting calcium signal, replicate 1 (fluorescence units) | resting calcium signal, replicate 2 (fluorescence units)
Mad1 | DRSC07561 | 3.85e7 | 2.66e7 | – | 1.52e7 | 1.25e7
Jon99Cii | DRSC16858 | 3.86e7 | 6.24e7 | – | 1.98e7 | 2.66e7
Jon99Cii | DRSC22574 | 5.04e7 | 3.91e7 | – | 2.27e7 | 1.62e7
SuUR | DRSC11292 | 3.07e7 | 4.13e7 | – | 1.48e7 | 1.83e7
nAChRalpha5 | DRSC01360 | 1.83e7 | 3.10e7 | – | 1.10e7 | 1.44e7
nAChRalpha5 | DRSC01946 | 4.92e7 | 3.19e7 | – | 2.08e7 | 1.50e7
nAChRalpha5 | DRSC01947 | 5.10e7 | 2.85e7 | – | 2.17e7 | 1.45e7
nAChRalpha5 | DRSC22785 | 4.58e7 | 3.01e7 | – | 2.14e7 | 1.32e7
CG10031 | DRSC00286 | 3.75e7 | 3.13e7 | – | 1.77e7 | 1.48e7
CG5267 | DRSC06928 | 4.49e7 | 4.79e7 | – | 1.87e7 | 2.27e7
ninaA | DRSC00830 | 4.16e7 | – | – | 2.56e7 | –
CG17377 | DRSC00950 | 3.75e7 | 4.27e7 | – | 2.04e7 | 2.03e7
CG17377 | DRSC02615 | 3.34e7 | – | – | 1.82e7 | –
CG17377 | DRSC21811 | 4.16e7 | 3.13e7 | – | 2.37e7 | 1.52e7
brn | DRSC18746 | 5.99e7 | 5.60e7 | – | 2.61e7 | 2.42e7
cora | DRSC07597 | 3.56e7 | 3.03e7 | – | 1.52e7 | 1.47e7
Vtld + CG42529 | DRSC10102 | 3.32e7 | 4.75e7 | – | 1.55e7 | 2.08e7
CG16711 | DRSC10220 | 3.27e7 | 4.72e7 | – | 1.60e7 | 2.07e7
gom | DRSC04690 | 4.41e7 | 5.84e7 | – | 2.03e7 | 2.52e7
RpS17 | DRSC11271 | 8.70e6 | 9.87e6 | – | 6.73e6 | 6.84e6
sncRNA:430e + His2A:CG33859 + His2A:CG33817 + 37 more | DRSC21264 | 2.49e7 | 1.45e7 | – | 1.66e7 | 9.14e6
CG3690 | DRSC18170 | 5.70e7 | 4.92e7 | 2.1 | 2.68e7 | 2.27e7
CG3690 | DRSC18641 | 6.14e7 | 5.64e7 | 2.2 | 2.84e7 | 2.46e7
CG18004 | DRSC06705 | 4.98e7 | 4.35e7 | – | 2.03e7 | 1.77e7
Twdlbeta | DRSC07310 | 3.62e7 | 4.85e7 | – | 1.94e7 | 2.03e7
Acf | DRSC14101 | 3.52e7 | 3.82e7 | – | 1.49e7 | 1.73e7
CG6712 | DRSC02981 | 3.63e7 | 5.38e7 | – | 1.79e7 | 2.47e7
CG6712 | DRSC21690 | 2.81e7 | 2.03e7 | – | 1.67e7 | 1.18e7
CG13369 | DRSC18481 | 2.63e7 | 4.54e7 | 1.8 | 1.47e7 | 1.98e7
CG32371 | DRSC22209 | 3.29e7 | 5.33e7 | – | 1.70e7 | 2.69e7
CG14300 | DRSC14779 | 3.28e7 | 3.77e7 | – | 6.18e7 | 1.57e7
CG1677 | DRSC18116 | 3.10e7 | 3.17e7 | – | 1.48e7 | 1.39e7
Rsph4a | DRSC04338 | 4.28e7 | – | – | 2.08e7 | –
CG12895 | DRSC06210 | 3.71e7 | 4.39e7 | – | 1.79e7 | 1.88e7
Slc45-1 | DRSC10427 | 2.91e7 | 2.74e7 | – | 1.51e7 | 1.30e7
trus | DRSC15772 | 3.47e7 | 4.04e7 | – | 1.71e7 | 2.08e7
Cubn2 | DRSC10561 | 2.16e7 | 3.01e7 | – | 1.12e7 | 1.37e7
Cubn2 | DRSC22044 | 3.06e7 | 3.81e7 | – | 1.47e7 | 1.94e7
pasi1 | DRSC16299 | 2.11e7 | 2.74e7 | – | 1.38e7 | 3.75e7
pasi1 | DRSC22385 | 3.35e7 | 4.54e7 | – | 1.58e7 | 2.22e7
LIMK1 | DRSC19811 | 3.50e7 | 4.04e7 | – | 1.74e7 | 1.85e7
CG34310 | DRSC00943 | 4.45e7 | 3.78e7 | – | 2.21e7 | 1.67e7
CG6693 | DRSC16097 | 4.38e7 | 4.58e7 | – | 1.81e7 | 1.89e7
Gbeta13F | DRSC20247 | 4.00e7 | 4.61e7 | – | 1.99e7 | 2.11e7
uno | DRSC07244 | 2.97e7 | 3.67e7 | – | 1.37e7 | 2.04e7
Atg101 | DRSC20020 | 5.08e7 | 3.45e7 | – | 2.21e7 | 1.43e7
eIF4E6 | DRSC14853 | 4.40e7 | 6.46e7 | – | 2.11e7 | 2.54e7
Prp4k | DRSC08144 | 3.53e7 | 3.06e7 | – | 1.64e7 | 1.55e7
e(y)3 | DRSC19450 | 5.02e7 | 4.79e7 | – | 2.26e7 | 1.87e7
CG3862 | DRSC00631 | 4.16e7 | – | – | 2.13e7 | –
Prx2 | DRSC20256 | 4.45e7 | 4.99e7 | – | 2.11e7 | 2.54e7
Tmtc1 | DRSC00147 | 3.96e7 | 4.53e7 | – | 2.04e7 | 2.05e7
Tmtc1 | DRSC00151 | 3.06e7 | 4.63e7 | – | 1.59e7 | 2.06e7
Tmtc1 | DRSC00314 | 3.89e7 | 6.04e7 | – | 1.81e7 | 2.43e7
Tmtc1 | DRSC00411 | 4.24e7 | 5.55e7 | – | 1.95e7 | 2.32e7
CG11291 | DRSC04097 | 4.08e7 | 4.64e7 | – | 2.03e7 | 2.09e7
CG42369 | DRSC03244 | 2.46e7 | 2.18e7 | – | 1.29e7 | 1.07e7
Trax | DRSC15709 | 4.04e7 | 5.01e7 | – | 1.69e7 | 2.11e7

6 successive entries from above, quoted:
predicted target | amplicon | calcium entry signal, replicate 1 (fluorescence units) | calcium entry signal, replicate 2 (fluorescence units) | entry to resting ratio | resting calcium signal, replicate 1 (fluorescence units) | resting calcium signal, replicate 2 (fluorescence units)
Atg101 | DRSC20020 | 5.08e7 | 3.45e7 | – | 2.21e7 | 1.43e7
eIF4E6 | DRSC14853 | 4.40e7 | 6.46e7 | – | 2.11e7 | 2.54e7
Prp4k | DRSC08144 | 3.53e7 | 3.06e7 | – | 1.64e7 | 1.55e7
e(y)3 | DRSC19450 | 5.02e7 | 4.79e7 | – | 2.26e7 | 1.87e7
CG3862 | DRSC00631 | 4.16e7 | – | – | 2.13e7 | –
Prx2 | DRSC20256 | 4.45e7 | 4.99e7 | – | 2.11e7 | 2.54e7
